Reference: paper PMC4931565, “Higher‐order assemblies of oligomeric cargo receptor complexes form the membrane scaffold of the Cvt vesicle” (EMBO Reports, 2016)
No constants are given. Whether binding was seen depends on the method and setting. Tags and fused reporters may be left off the sequences shown.

Target: T1, MBP-Atg19 (Saccharomyces cerevisiae Atg19 with N-terminal MBP) (S. cerevisiae), P35193
T1 chain: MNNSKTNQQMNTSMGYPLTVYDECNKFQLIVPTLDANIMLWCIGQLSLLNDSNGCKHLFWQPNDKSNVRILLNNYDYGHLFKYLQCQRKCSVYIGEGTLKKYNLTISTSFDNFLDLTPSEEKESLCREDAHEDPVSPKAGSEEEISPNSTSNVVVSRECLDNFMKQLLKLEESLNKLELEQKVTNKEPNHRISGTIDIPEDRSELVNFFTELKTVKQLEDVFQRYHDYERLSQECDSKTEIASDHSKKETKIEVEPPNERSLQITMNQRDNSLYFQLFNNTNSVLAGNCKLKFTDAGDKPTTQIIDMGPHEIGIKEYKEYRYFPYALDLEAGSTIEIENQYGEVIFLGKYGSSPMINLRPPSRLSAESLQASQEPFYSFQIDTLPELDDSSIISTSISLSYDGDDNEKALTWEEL
Assay: pull-down; purified MBP-Atg19 or MBP (1 uM) mixed with his-Ams1 (1 uM), mApe1 (1 uM) or prApe1 (0.7 uM) overnight at 4 C in 50 mM Tris-HCl pH 7.5, 25 mM NaCl, 5 mM MgCl2, 1 mM DTT, 0.2% NP-40; captured on amylose beads; SDS-PAGE, Coomassie; both purified
Settings: remark: other sources report otherwise

B1: Saccharomyces cerevisiae mApe1 (mature Ape1 lacking the N-terminal propeptide), P14904 46-514 (natural protein)
chain: EHNYEDIAQEFIDFIYKNPTTYHVVSFFAELLDKHNFKYLSEKSNWQDSIGEDGGKFYTIRNGTNLSAFILGKNWRAEKGVGVIGSHVDALTVKLKPVSFKDTAEGYGRIAVAPYGGTLNELWLDRDLGIGGRLLYKKKGTNEIKSALVDSTPLPVCRIPSLAPHFGKPAEGPFDKEDQTIPVIGFPTPDEEGNEPPTDDEKKSPLFGKHCIHLLRYVAKLAGVEVSELIQMDLDLFDVQKGTIGGIGKHFLFAPRLDDRLCSFAAMIALICYAKDVNTEESDLFSTVTLYDNEEIGSLTRQGAKGGLLESVVERSSSAFTKKPVDLHTVWANSIILSADVNHLYNPNFPEVYLKNHFPVPNVGITLSLDPNGHMATDVVGTALVEELARRNGDKVQYFQIKNNSRSGGTIGPSLASQTGARTIDLGIAQLSMHSIRAATGSKDVGLGVKFFNGFFKHWRSVYDEFGEL
Q: For B1, which binding is on record?
A: no binding (tested: 1 uM each)
